Experimental data published in doi:10.1101/2021.08.25.457671.
No constants are given. Whether binding was seen depends on the method and setting. In cells and extracts the contact can be indirect. Some binding calls cover weakened binding; strength is not graded here.

Molecular target: T1, mammalian Lonp-1, P36776
T1 chain: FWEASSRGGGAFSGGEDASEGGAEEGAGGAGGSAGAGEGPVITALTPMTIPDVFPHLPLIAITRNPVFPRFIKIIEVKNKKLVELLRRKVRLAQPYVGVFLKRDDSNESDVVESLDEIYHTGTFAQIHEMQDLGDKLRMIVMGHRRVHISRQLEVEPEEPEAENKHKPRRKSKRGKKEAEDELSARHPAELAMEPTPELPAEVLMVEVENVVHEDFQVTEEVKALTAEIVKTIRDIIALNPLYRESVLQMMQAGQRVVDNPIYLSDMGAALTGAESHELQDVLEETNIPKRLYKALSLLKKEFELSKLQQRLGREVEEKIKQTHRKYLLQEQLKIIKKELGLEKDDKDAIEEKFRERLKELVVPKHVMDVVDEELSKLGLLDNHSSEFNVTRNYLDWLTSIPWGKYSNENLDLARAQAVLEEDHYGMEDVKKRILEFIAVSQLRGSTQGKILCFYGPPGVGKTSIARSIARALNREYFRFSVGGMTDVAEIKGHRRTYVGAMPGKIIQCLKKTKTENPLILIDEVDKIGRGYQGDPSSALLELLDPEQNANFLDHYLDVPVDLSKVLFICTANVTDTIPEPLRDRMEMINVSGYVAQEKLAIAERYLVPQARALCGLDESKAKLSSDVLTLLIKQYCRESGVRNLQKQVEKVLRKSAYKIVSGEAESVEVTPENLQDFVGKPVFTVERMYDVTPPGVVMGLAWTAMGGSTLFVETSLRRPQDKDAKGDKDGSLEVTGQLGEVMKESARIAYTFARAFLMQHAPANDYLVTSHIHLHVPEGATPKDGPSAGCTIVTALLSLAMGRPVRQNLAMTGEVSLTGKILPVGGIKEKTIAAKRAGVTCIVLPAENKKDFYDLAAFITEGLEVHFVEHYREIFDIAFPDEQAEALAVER
Test: co-IP
Settings: remark: other sources report otherwise

B1: Hsp110, Q92598 1-858 (protein)
chain: MSVVGLDVGSQSCYIAVARAGGIETIANEFSDRCTPSVISFGSKNRTIGVAAKNQQITHANNTVSNFKRFHGRAFNDPFIQKEKENLSYDLVPLKNGGVGIKVMYMGEEHLFSVEQITAMLLTKLKETAENSLKKPVTDCVISVPSFFTDAERRSVLDAAQIVGLNCLRLMNDMTAVALNYGIYKQDLPSLDEKPRIVVFVDMGHSAFQVSACAFNKGKLKVLGTAFDPFLGGKNFDEKLVEHFCAEFKTKYKLDAKSKIRALLRLYQECEKLKKLMSSNSTDLPLNIECFMNDKDVSGKMNRSQFEELCAELLQKIEVPLYSLLEQTHLKVEDVSAVEIVGGATRIPAVKERIAKFFGKDISTTLNADEAVARGCALQCAILSPAFKVREFSVTDAVPFPISLIWNHDSEDTEGVHEVFSRNHAAPFSKVLTFLRRGPFELEAFYSDPQGVPYPEAKIGRFVVQNVSAQKDGEKSRVKVKVRVNTHGIFTISTASMVEKVPTEENEMSSEADMECLNQRPPENPDTDKNVQQDNSEAGTQPQVQTDAQQTSQSPPSPELTSEENKIPDADKANEKKVDQPPEAKKPKIKVVNVELPIEANLVWQLGKDLLNMYIETEGKMIMQDKLEKERNDAKNAVEEYVYEFRDKLCGPYEKFICEQDHQNFLRLLTETEDWLYEEGEDQAKQAYVDKLEELMKIGTPVKVRFQEAEERPKMFEELGQRLQHYAKIAADFRNKDEKYNHIDESEMKKVEKSVNEVMEWMNNVMNAQAKKSLDQDPVVRAQEIKTKIKELNNTCEPVVTQPKPKIESPKLERTPNGPNIDKKEEDLEDKNNFGAEPPHQNGECYPNEKNSVNMDLD
- binding: binds
